# In the supplement of paper PMC8728848:
# The list shows a part of the results.
# B1: AT1G77380(17) (Arabidopsis thaliana), Q39134 (protein)
# chain: MVQNHQTVLAVDMPQTGGSKYLDDDGKNKRTGSVWTASAHIITAVIGSGVLSLAWATAQLGWLAGPVVMLLFSAVTYFTSSLLAACYRSGDPISGKRNYTYMDAVRSNLGGVKVTLCGIVQYLNIFGVAIGYTIASAISMMAIKRSNCFHKSGGKDPCHMNSNPYMIAFGLVQILFSQIPDFDQLWWLSILAAVMSFTYSSAGLALGIAQVVVNGKVKGSLTGISIGAVTETQKIWRTFQALGDIAFAYSYSIILIEIQDTVKSPPSEEKTMKKATLVSVSVTTMFYMLCGCMGYAAFGDLSPGNLLTGFGFYNPYWLLDIANAAIVIHLIGAYQVYCQPLFAFIEKQASIQFPDSEFIAKDIKIPIPGFKPLRLNVFRLIWRTVFVIITTVISMLLPFFNDVVGLLGALGFWPLTVYFPVEMYIAQKKIPRWSTRWVCLQVFSLGCLVVSIAAAAGSIAGVLLDLKSYKPFRSEY
# How the values were obtained:
# Experiment in all cases: glycan array binding signal (z-score within array); higher = stronger binding
# Conditions in all cases: glycan notation: IUPAC condensed, linker removed
# [1] = target: Gal(b1-4)GlcNAc(b1-2)[Gal(b1-4)GlcNAc(b1-6)]Man(a1-6)[Gal(b1-4)GlcNAc(b1-2)Man(a1-3)]Man(b1-4)GlcNAc(b1-4)[Fuc(a1-6)]GlcNAc
# Summary of the method: (§1)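 Glycan array data were curated from 3228 arrays in the Consortium for Functional Glycomics database and kept only where the protein sequence was available. Glycan names were converted to IUPAC-condensed notation, and columns mapping to the same glycan were averaged. The binding signal is a within-array Z-score, averaged across arrays of the same protein sequence at different concentrations or buffers and across linkers. Negative Z-scores can be read as non-binding.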
# [2] = target: Gal(b1-4)GlcNAc(b1-2)[Gal(b1-4)GlcNAc(b1-6)]Man(a1-6)[GlcNAc(b1-4)][Gal(b1-4)GlcNAc(b1-2)Man(a1-3)]Man(b1-4)GlcNAc(b1-4)GlcNAc
# Summary of the method: as §1
# [3] = target: Gal(b1-4)GlcNAc(b1-2)[Gal(b1-4)GlcNAc(b1-6)]Man(a1-6)[GlcNAc(b1-4)][Gal(b1-4)GlcNAc(b1-2)[Gal(b1-4)GlcNAc(b1-4)]Man(a1-3)]Man(b1-4)GlcNAc(b1-4)[Fuc(a1-6)]GlcNAc
# Summary of the method: as §1
# [4] = target: Gal(b1-4)GlcNAc(b1-3)Gal(b1-3)GalNAc
# Summary of the method: as §1
# [5] = target: Gal(b1-4)GlcNAc(b1-3)Gal(b1-3)GlcNAc
# Summary of the method: as §1
# [6] = target: Gal(b1-4)GlcNAc(b1-3)Gal(b1-4)Glc
# Summary of the method: as §1
# [7] = target: Gal(b1-4)GlcNAc(b1-3)Gal(b1-4)GlcNAc
# Summary of the method: as §1
# [8] = target: Gal(b1-4)GlcNAc(b1-3)Gal(b1-4)GlcNAc(b1-2)Man(a1-3)[Gal(b1-4)GlcNAc(b1-3)Gal(b1-4)GlcNAc(b1-2)Man(a1-6)]Man(b1-4)GlcNAc(b1-4)GlcNAc
# Summary of the method: as §1
# [9] = target: Gal(b1-4)GlcNAc(b1-3)Gal(b1-4)GlcNAc(b1-2)Man(a1-3)[Gal(b1-4)GlcNAc(b1-3)Gal(b1-4)GlcNAc(b1-2)Man(a1-6)]Man(b1-4)GlcNAc(b1-4)[Fuc(a1-6)]GlcNAc
# Summary of the method: as §1
# [10] = target: Gal(b1-4)GlcNAc(b1-3)Gal(b1-4)GlcNAc(b1-2)[Gal(b1-4)GlcNAc(b1-3)Gal(b1-4)GlcNAc(b1-6)]Man(a1-6)[Gal(b1-4)GlcNAc(b1-3)Gal(b1-4)GlcNAc(b1-2)Man(a1-3)]Man(b1-4)GlcNAc(b1-4)GlcNAc
# Summary of the method: as §1
# [11] = target: Gal(b1-4)GlcNAc(b1-3)Gal(b1-4)GlcNAc(b1-2)[Gal(b1-4)GlcNAc(b1-3)Gal(b1-4)GlcNAc(b1-6)]Man(a1-6)[Gal(b1-4)GlcNAc(b1-3)Gal(b1-4)GlcNAc(b1-2)Man(a1-3)]Man(b1-4)GlcNAc(b1-4)[Fuc(a1-6)]GlcNAc
# Summary of the method: as §1
# [12] = target: Gal(b1-4)GlcNAc(b1-3)Gal(b1-4)GlcNAc(b1-3)Gal(b1-4)GlcNAc
# Summary of the method: as §1
# [13] = target: Gal(b1-4)GlcNAc(b1-3)Gal(b1-4)GlcNAc(b1-3)Gal(b1-4)GlcNAc(b1-2)Man(a1-3)[Gal(b1-4)GlcNAc(b1-3)Gal(b1-4)GlcNAc(b1-3)Gal(b1-4)GlcNAc(b1-2)Man(a1-6)]Man(b1-4)GlcNAc(b1-4)GlcNAc
# Summary of the method: as §1
# [14] = target: Gal(b1-4)GlcNAc(b1-3)Gal(b1-4)GlcNAc(b1-3)Gal(b1-4)GlcNAc(b1-2)Man(a1-3)[Gal(b1-4)GlcNAc(b1-3)Gal(b1-4)GlcNAc(b1-3)Gal(b1-4)GlcNAc(b1-2)Man(a1-6)]Man(b1-4)GlcNAc(b1-4)[Fuc(a1-6)]GlcNAc
# Summary of the method: as §1
# [15] = target: Gal(b1-4)GlcNAc(b1-3)Gal(b1-4)GlcNAc(b1-3)Gal(b1-4)GlcNAc(b1-2)[Gal(b1-4)GlcNAc(b1-3)Gal(b1-4)GlcNAc(b1-3)Gal(b1-4)GlcNAc(b1-6)]Man(a1-6)[Gal(b1-4)GlcNAc(b1-3)Gal(b1-4)GlcNAc(b1-3)Gal(b1-4)GlcNAc(b1-2)Man(a1-3)]Man(b1-4)GlcNAc(b1-4)[Fuc(a1-6)]GlcNAc
# Summary of the method: as §1
# [16] = target: Gal(b1-4)GlcNAc(b1-3)Gal(b1-4)GlcNAc(b1-3)Gal(b1-4)GlcNAc(b1-3)Gal(b1-4)GlcNAc(b1-2)Man(a1-3)[Gal(b1-4)GlcNAc(b1-3)Gal(b1-4)GlcNAc(b1-3)Gal(b1-4)GlcNAc(b1-3)Gal(b1-4)GlcNAc(b1-2)Man(a1-6)]Man(b1-4)GlcNAc(b1-4)GlcNAc
# Summary of the method: as §1
# [17] = target: Gal(b1-4)GlcNAc(b1-3)Gal(b1-4)GlcNAc(b1-3)Gal(b1-4)GlcNAc(b1-3)Gal(b1-4)GlcNAc(b1-2)Man(a1-3)[Gal(b1-4)GlcNAc(b1-3)Gal(b1-4)GlcNAc(b1-3)Gal(b1-4)GlcNAc(b1-3)Gal(b1-4)GlcNAc(b1-2)Man(a1-6)]Man(b1-4)GlcNAc(b1-4)[Fuc(a1-6)]GlcNAc
# Summary of the method: as §1
# [18] = target: Gal(b1-4)GlcNAc(b1-3)Gal(b1-4)GlcNAc(b1-3)Gal(b1-4)GlcNAc(b1-3)Gal(b1-4)GlcNAc(b1-2)[Gal(b1-4)GlcNAc(b1-3)Gal(b1-4)GlcNAc(b1-3)Gal(b1-4)GlcNAc(b1-3)Gal(b1-4)GlcNAc(b1-6)]Man(a1-6)[Gal(b1-4)GlcNAc(b1-3)Gal(b1-4)GlcNAc(b1-3)Gal(b1-4)GlcNAc(b1-3)Gal(b1-4)GlcNAc(b1-2)Man(a1-3)]Man(b1-4)GlcNAc(b1-4)[Fuc(a1-6)]GlcNAc
# Summary of the method: as §1
# [19] = target: Gal(b1-4)GlcNAc(b1-3)Gal(b1-4)GlcNAc(b1-3)Gal(b1-4)GlcNAc(b1-3)Gal(b1-4)GlcNAc(b1-3)Gal(b1-4)GlcNAc(b1-2)Man(a1-3)[Gal(b1-4)GlcNAc(b1-3)Gal(b1-4)GlcNAc(b1-3)Gal(b1-4)GlcNAc(b1-3)Gal(b1-4)GlcNAc(b1-3)Gal(b1-4)GlcNAc(b1-2)Man(a1-6)]Man(b1-4)GlcNAc(b1-4)GlcNAc
# Summary of the method: as §1
# [20] = target: Gal(b1-4)GlcNAc(b1-3)Gal(b1-4)GlcNAc(b1-3)Gal(b1-4)GlcNAc(b1-3)Gal(b1-4)GlcNAc(b1-3)Gal(b1-4)GlcNAc(b1-2)Man(a1-3)[Gal(b1-4)GlcNAc(b1-3)Gal(b1-4)GlcNAc(b1-3)Gal(b1-4)GlcNAc(b1-3)Gal(b1-4)GlcNAc(b1-3)Gal(b1-4)GlcNAc(b1-2)Man(a1-6)]Man(b1-4)GlcNAc(b1-4)[Fuc(a1-6)]GlcNAc
# Summary of the method: as §1
# [21] = target: Gal(b1-4)GlcNAc(b1-3)Gal(b1-4)GlcNAc(b1-3)Gal(b1-4)GlcNAc(b1-3)Gal(b1-4)GlcNAc(b1-3)Gal(b1-4)GlcNAc(b1-2)[Gal(b1-4)GlcNAc(b1-3)Gal(b1-4)GlcNAc(b1-3)Gal(b1-4)GlcNAc(b1-3)Gal(b1-4)GlcNAc(b1-3)Gal(b1-4)GlcNAc(b1-6)]Man(a1-6)[Gal(b1-4)GlcNAc(b1-3)Gal(b1-4)GlcNAc(b1-3)Gal(b1-4)GlcNAc(b1-3)Gal(b1-4)GlcNAc(b1-3)Gal(b1-4)GlcNAc(b1-2)Man(a1-3)]Man(b1-4)GlcNAc(b1-4)[Fuc(a1-6)]GlcNAc
# Summary of the method: as §1
# [22] = target: Gal(b1-4)GlcNAc(b1-3)Gal(b1-4)GlcNAc(b1-3)Gal(b1-4)GlcNAc(b1-3)Gal(b1-4)GlcNAc(b1-3)Gal(b1-4)GlcNAc(b1-3)Gal(b1-4)GlcNAc(b1-2)Man(a1-3)[Gal(b1-4)GlcNAc(b1-3)Gal(b1-4)GlcNAc(b1-3)Gal(b1-4)GlcNAc(b1-3)Gal(b1-4)GlcNAc(b1-3)Gal(b1-4)GlcNAc(b1-3)Gal(b1-4)GlcNAc(b1-2)Man(a1-6)]Man(b1-4)GlcNAc(b1-4)GlcNAc
# Summary of the method: as §1
# [23] = target: Gal(b1-4)GlcNAc(b1-3)Gal(b1-4)GlcNAc(b1-3)GalNAc
# Summary of the method: as §1
# [24] = target: Gal(b1-4)GlcNAc(b1-3)Gal(b1-4)GlcNAc(b1-3)[Gal(b1-4)GlcNAc(b1-3)Gal(b1-4)GlcNAc(b1-6)]GalNAc
# Summary of the method: as §1
# [25] = target: Gal(b1-4)GlcNAc(b1-3)Gal(b1-4)GlcNAc(b1-6)[Gal(b1-3)]GalNAc
# Summary of the method: as §1
# [26] = target: Gal(b1-4)GlcNAc(b1-3)Gal(b1-4)[Fuc(a1-3)]GlcNAc(b1-3)Gal(b1-4)[Fuc(a1-3)]GlcNAc
# Summary of the method: as §1
# [27] = target: Gal(b1-4)GlcNAc(b1-3)GalNAc
# Summary of the method: as §1
# [28] = target: Gal(b1-4)GlcNAc(b1-3)[Fuc(a1-3)GlcNAc(b1-6)]Gal(b1-4)Glc
# Summary of the method: as §1
# [29] = target: Gal(b1-4)GlcNAc(b1-3)[Gal(b1-4)GlcNAc(b1-6)]Gal(b1-4)GlcNAc
# Summary of the method: as §1
# [30] = target: Gal(b1-4)GlcNAc(b1-3)[GlcNAc(b1-6)]Gal(b1-4)GlcNAc
# Summary of the method: as §1
# [31] = target: Gal(b1-4)GlcNAc(b1-6)Gal(b1-4)GlcNAc
# Summary of the method: as §1
# [32] = target: Gal(b1-4)GlcNAc(b1-6)GalNAc
# Summary of the method: as §1
# [33] = target: Gal(b1-4)GlcNAc(b1-6)[Gal(b1-3)]GalNAc
# Summary of the method: as §1
# [34] = target: Gal(b1-4)GlcNAc(b1-6)[Gal(b1-4)GlcNAc(b1-3)]GalNAc
# Summary of the method: as §1
# Gal(b1-4)GlcNAc6P = target: Gal(b1-4)GlcNAc6P
# Summary of the method: as §1
# Gal(b1-6)Gal = target: Gal(b1-6)Gal
# Summary of the method: as §1
# Gal3S(b1-3)GalNAc = target: Gal3S(b1-3)GalNAc
# Summary of the method: as §1
# Gal3S(b1-3)GlcNAc = target: Gal3S(b1-3)GlcNAc
# Summary of the method: as §1
binder,measurement,setting,value
B1,glycan array binding signal (z-score),[1],1.11
same,glycan array binding signal (z-score),[2],-0.609
same,glycan array binding signal (z-score),[3],0.317
same,glycan array binding signal (z-score),[4],-0.234
same,glycan array binding signal (z-score),[5],-0.381
same,glycan array binding signal (z-score),[6],-0.114
same,glycan array binding signal (z-score),[7],1.24
same,glycan array binding signal (z-score),[8],-0.802
same,glycan array binding signal (z-score),[9],0.963
same,glycan array binding signal (z-score),[10],1.81
same,glycan array binding signal (z-score),[11],-0.372
same,glycan array binding signal (z-score),[12],-0.646
same,glycan array binding signal (z-score),[13],-0.605
same,glycan array binding signal (z-score),[14],-0.417
same,glycan array binding signal (z-score),[15],-0.799
same,glycan array binding signal (z-score),[16],-0.631
same,glycan array binding signal (z-score),[17],-0.033
same,glycan array binding signal (z-score),[18],-0.813
same,glycan array binding signal (z-score),[19],-0.618
same,glycan array binding signal (z-score),[20],-0.495
same,glycan array binding signal (z-score),[21],-0.494
same,glycan array binding signal (z-score),[22],-0.632
same,glycan array binding signal (z-score),[23],-1.04
same,glycan array binding signal (z-score),[24],-0.589
same,glycan array binding signal (z-score),[25],-0.334
same,glycan array binding signal (z-score),[26],0.614
same,glycan array binding signal (z-score),[27],-0.413
same,glycan array binding signal (z-score),[28],0.166
same,glycan array binding signal (z-score),[29],-0.529
same,glycan array binding signal (z-score),[30],1.28
same,glycan array binding signal (z-score),[31],-0.725
same,glycan array binding signal (z-score),[32],0.61
same,glycan array binding signal (z-score),[33],0.891
same,glycan array binding signal (z-score),[34],-0.041
same,glycan array binding signal (z-score),Gal(b1-4)GlcNAc6P,-0.806
same,glycan array binding signal (z-score),Gal(b1-6)Gal,-0.084
same,glycan array binding signal (z-score),Gal3S(b1-3)GalNAc,0.088
same,glycan array binding signal (z-score),Gal3S(b1-3)GlcNAc,1.15

# Reformatted: results already given.
binder | measurement | setting | value
B1 | glycan array binding signal (z-score) | [30] | 1.28
same | glycan array binding signal (z-score) | [31] | -0.725
